These are yes or no findings as the source states them, for the method shown. In cells and extracts the contact can be indirect. Some binding calls cover weakened binding; strength is not graded here. Tags and fused reporters may be left off the sequences shown.
Biological target: T1, TFF2-Fc (Trefoil factor 2 fused to Fc) (UniProt Q03404)
T1 sequence: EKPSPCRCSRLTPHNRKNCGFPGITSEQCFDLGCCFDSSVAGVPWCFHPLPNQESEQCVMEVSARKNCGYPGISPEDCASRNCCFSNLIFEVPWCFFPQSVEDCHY
Assay: co-IP

binding: binds
B1: Flag-tagged murine LINGO3 (leucine rich repeat and immunoglobulin like domain containing nogo receptor interacting protein 3) (receptor, UniProt Q6GQU6 24-589)
chain: CPARCECSASTRTVACGRRRLTAIPEGIPAETRMLELSRNRIRCLNPGDLASLPTLEELDLNHNVIAHVEPGAFANLPRLRVLRLRGNQLKLIPPGVFTHLDSLTLLDLSENKLVILLDFSFQDLRSLQRLEVGDNDLVFISRRAFAGLLGLAELTLERCNLTSLSPESLGHLRGLGALRLRHLAIAALEDQNFQKLPGLSHLEIDNWPLLEEVAPGSLRGLNLTSLSITHTNITAVPAAALRQQAHLTCLNLSHNPISMVPRGSFRDLVRLRELHLAGALLAVIEPQAFVGLRQIRLLNLSDNLLSTLEENTFHSVNTLETLRVDGNPLACDCRLLWIVQRRKTLNFDGRLPACATPAEVRGDALHNLPDSVLFEYFVCRKPKIRERRLQHVTATEGDDVRFLCRAEGEPAPTVAWVTPQHHSVTAASRGRARVLPGGTLTIADTRPQDSGTYTCVASNAGGNDTYFATLTVQPAANRTQGDGHNETQVGVRFPLDLTTILVSTAMGCITFLGVVLFCFLLLFVWSRGRGQHKNNFSVEYSFRKVDGPAAAAGQGGARKFNMKMI
